Where “and” joins values, the source holds several entries; their conditions need not be identical. Equal entries are not always repeated. This is one part of the list. Each value is one well over the wells without odorant, computed here; the data are noisy.

For one assay, the system named is OR6N2 clone 1027. In words: odorant receptor activation (CRE luciferase / Renilla) (fold of no-odor wells); higher = more activation. To be noted: 100 µM.
As to `CC12C=CCC1C1CCC3=CC(=O)CCC3(C)C1CC2` (configuration not stated) [androstadienone], the odorant receptor activation turned out to be 1.91.

`CC(=O)OC(C)(C)C1CC=C(C)CC1` (configuration not stated) [terpinyl acetate] registered an odorant receptor activation of 1.25.

Take `CC=Cc1ccc(O)c(OC)c1` [isoeugenol]: the odorant receptor activation is 1.06.

With `CCCC(=O)O` [butyric acid], the odorant receptor activation was determined as 0.94.

`C=CCSCC=C` [diallyl sulfide] returned an odorant receptor activation of 0.899.

`CCCCCCC=O` [heptaldehyde]: the odorant receptor activation was 0.605 and 1.27.

Consider `CCCCCCCCCC=O` [decyl aldehyde], for which the odorant receptor activation was determined as 1.24.

For another assay, the system named is OR6P1 clone 1034. Described as above. To be noted: 100 µM.
`CC(C)(C)c1ccc(CCC=O)cc1` [bourgeonal] had an odorant receptor activation of 1.19.

In turn, `CC(=O)c1ccccc1` [acetophenone] registered an odorant receptor activation of 1.67.

`CCCCCCCCC=O` [nonyl aldehyde] yielded an odorant receptor activation of 1.07.

In the case of `CCCCCC(=O)O` [caproic acid], the odorant receptor activation was 1.06.

As to `CC1=CCC(C(C)(C)O)CC1` (configuration not stated) [terpineol], the odorant receptor activation is 1.22.

In the case of `CCCCCCCCOC(C)=O` [octyl acetate], the odorant receptor activation was 1.13.

`COC(=O)c1ccccc1` [methyl benzoate]: the odorant receptor activation is 1.99.

`O=C1CCCCCCCCCCCCCCO1` [pentadecalactone] returned an odorant receptor activation of 0.801.

As for `COc1cc(C)ccc1O` [2-methoxy-4-methylphenol], the odorant receptor activation amounted to 2.12.

In turn, `CC12C=CCC1C1CCC3CC(=O)CCC3(C)C1CC2` (configuration not stated) [androstenone] yielded an odorant receptor activation of 1.82.

In turn, `CCCCCCCOC(C)=O` [heptyl acetate] yielded an odorant receptor activation of 0.717.

`CC1=NC(C)SC1C` (configuration not stated) had an odorant receptor activation of 1.38.

In the case of `CC(C)C=O` [isobutyraldehyde], the odorant receptor activation worked out at 0.69.

Regarding `C=CC(C)(O)CCC=C(C)C` (configuration not stated) [linalool], the odorant receptor activation amounted to 1.18.

With `O=CCc1ccccc1` [phenyl acetaldehyde], the odorant receptor activation was determined as 1.94.

(Values after the odorant receptor screen of Mainland et al. (2015).)
